First the molecules themselves.
B1: MEC-2 C-terminal domain (residues 371–481), wild type (domain or fragment, UniProt Q27433 371-481)
chain: PPKVEEPPSLPKKIRSCCLYKYPDWVQGMVGSEGGGGHGHSHGGGGGGLGSSQGAFHPSQAGSGPSTTTTSGRPLLRSMREAQFHSAAPPISAPNQSQTSVSQLDPALLIR
B2: MEC-2 C-terminal domain ∆PRM mutant (377PPxxP381→377AAxxA381) (domain or fragment, UniProt Q27433 371-481)
chain: B1 chain with P7A, P8A, P11A
B3: MEC-2 C-terminal domain R385H mutant (domain or fragment, C. elegans, UniProt Q27433 371-481, looked up)
chain: B1 chain with R15H
notes: MEC-2 (stomatin), C. elegans, C-terminal domain, residues 371-481 as for the wild-type construct, with R385H (allele u26); also called MEC-2 (R385H); u26 allele

The results in this text go back to paper PMC10635833, “A MEC-2/stomatin condensate liquid-to-solid phase transition controls neuronal mechanotransduction during touch sensing” (Nature Cell Biology, 2023).

Residue numbers refer to the chain shown, from its start. Numbers in names are those of the source. No constants are given. Whether binding was seen depends on the method and setting. Some entries that bind do so weakly or less than the wild type.

The target of the experiment is T1, UNC-89 SH3 domain (59–128) (C. elegans) (UniProt O01761).
T1 sequence: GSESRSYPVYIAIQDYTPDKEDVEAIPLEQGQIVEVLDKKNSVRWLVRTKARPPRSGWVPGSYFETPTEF
Put plainly: NMR titration; 1H-15N correlation spectra of 15N,13C-labelled MEC-2 (371-481) with 10 molar equivalents of UNC-89 SH3 domain, and vice versa (one ratio, no series); chemical shift perturbations and intensity ratios I/I0; NMR experiments recorded at 278 K; NMR buffer 20 mM sodium phosphate pH 7.4, 1 mM TCEP, 0.05% NaN3; both purified.
On to B1, for which the binding entry is “binds weakly”.

In the case of B2, the binding entry is “no binding”.

As for B3, the binding result was “binds weakly”.
